Primary screen of a compound library

Data taken from ChEMBL document CHEMBL3988442, “University of Dundee, Small-Polar-MMV Screening Library” (2021).

The filed quantity is “Percent Effect” (%).
The controls that fix the scale are not given in the record; negative values are as filed.
Compounds were drawn at random from those tested, without regard to their results.
Two or more numbers in one place are separate tests of the same structure; such repeats can differ widely.

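Viability assay of Plasmodium falciparum sporozoites; the read-out is not stated. The concentration is filed as 10 mM, unlikely as a test dose, so the dose is not known. Higher reads as lower viability (inferred: compounds with an IC50 in retests scored well above the rest). Strong results were mostly tested again. Of about 34,000 compounds tested this way, about 280 (0.84%) reached 50% or more in at least one test.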

{"smiles": "CC(C)C(CNC(=O)Nc1cn[nH]c1)N1CCOCC1", "stereo": "centres unmarked", "Percent Effect": 9.354}
{"smiles": "CCOc1ccc(C(=O)N2CCCS2(=O)=O)cc1OC", "Percent Effect": 5.981}
{"smiles": "Cc1cnn(CC2CCCCN2C(=O)c2ccc3[nH]cnc3c2)c1", "stereo": "centres unmarked", "Percent Effect": 2.279}
{"smiles": "CN(C)C(=O)CN(C)C(=O)c1cnc(Cc2ccc(F)cc2)s1", "Percent Effect": 6.652}
{"smiles": "Cc1ncccc1-c1cc2cccnc2n1CCCNC(=O)C(C)(C)C.Cl", "Percent Effect": -6.017}
{"smiles": "O=C(O)C(F)(F)F.[H][C@@]12C[C@H](C(=O)N(C)C)CN(Cc3ccc(F)cc3)[C@]1([H])CCO2", "Percent Effect": -4.882}
{"smiles": "CC(C(=O)Nc1ccnn1C(C)C)N1CCN(Cc2ccccc2)CC1", "stereo": "centres unmarked", "Percent Effect": -6.509}
{"smiles": "CCc1c(C)[nH]c(C(C)(C)N)nc1=O.Cl", "Percent Effect": -8.705}
{"smiles": "CCc1cc(O)n2nc(C3CCN(C(=O)c4ccncc4)CC3)cc2n1", "Percent Effect": 12.1}
{"smiles": "Cc1cc(N2CCC(Cc3ncccn3)C2)ncn1", "stereo": "centres unmarked", "Percent Effect": -9.207}
{"smiles": "Cn1nc(C2CNCCO2)cc1CCOc1cccc(C(F)(F)F)c1", "stereo": "centres unmarked", "Percent Effect": 10.33}
{"smiles": "Cc1cc2n(n1)CC(CNCc1cnn(C)c1)CN2", "stereo": "centres unmarked", "Percent Effect": -4.338}
{"smiles": "c1ccc(-c2nccc(CNC3CCc4ncnn4C3)n2)cc1", "stereo": "centres unmarked", "Percent Effect": -3.188}
{"smiles": "CCOC(=O)N1CCCn2nc(C(=O)NCCN(C)C)cc2C1", "Percent Effect": "-17.39 & -24.7"}
{"smiles": "Cc1csc(NC(=O)c2cnc(C3CCCN3)cn2)n1.Cl", "stereo": "centres unmarked", "Percent Effect": "76.82 & 93.2 & 90.06"}
{"smiles": "CC(=O)c1cc(CC(=O)NCc2ccsc2)cs1", "Percent Effect": -20.18}
{"smiles": "O=C(c1ccc[nH]1)N1CCc2nnc(Cn3cccn3)n2CC1", "Percent Effect": -6.764}
{"smiles": "CCN(CC)S(=O)(=O)N(C)Cc1ccc2c(c1)OCCO2", "Percent Effect": 0.1023}
{"smiles": "Nc1nccnc1C1CN(Cc2ccc(OCC(=O)O)cc2)CCO1", "stereo": "centres unmarked", "Percent Effect": 12.8}
{"smiles": "CCNC(=O)N1CCCC(C(=O)c2cccc(OC(C)C)c2)C1", "stereo": "centres unmarked", "Percent Effect": "34.61 & 27.47 & 36.6"}
{"smiles": "CN(C)C(=O)C1CCN(c2cncc(-n3cccn3)n2)CC1", "Percent Effect": 4.94}
{"smiles": "CN1CCC(Cc2nc(-c3cnccn3)n(C3CCS(=O)(=O)C3)n2)CC1", "stereo": "centres unmarked", "Percent Effect": -12.37}
{"smiles": "O=C(O)C(F)(F)F.O=C1CC(c2ccncc2)C2(CCN(C(=O)c3cccc(F)c3)CC2)N1", "stereo": "centres unmarked", "Percent Effect": 17.51}
{"smiles": "Cc1csc(N2CCN(C(=O)C3(C#N)CCCC3)CC2)n1", "Percent Effect": -1.887}
{"smiles": "CNC(=O)CC1CCN(Cc2nc(-c3ccc(SC)cc3)oc2C)CC1", "Percent Effect": -4.824}
{"smiles": "CCC(O)CN1CCN(C(=O)c2cnc3n[nH]c(C)c3c2)CC1", "stereo": "centres unmarked", "Percent Effect": 2.783}
{"smiles": "O=C(c1ccco1)N1CCC2(CC1)C(=O)NCCN2CC1CC1", "Percent Effect": -6.152}
{"smiles": "Cc1ccc2c(n1)N(Cc1ccncc1)CCN(S(C)(=O)=O)C2.O=C(O)C(F)(F)F.O=C(O)C(F)(F)F", "Percent Effect": 0.5945}
{"smiles": "COc1ccc(OC)c(CNCc2c(C)nc3sc(C)cn23)c1", "Percent Effect": -4.379}
{"smiles": "O=C(O)CC(O)(CC(=O)O)C(=O)O.[H][C@@]12CC[C@@](O)(c3ncccc3C)[C@]1([H])CN(Cc1cccc(Cl)c1Cl)C2", "Percent Effect": 3.065}
{"smiles": "Cc1cc(NC(=O)C(C)Nc2ccn(Cc3ccccn3)n2)on1", "stereo": "centres unmarked", "Percent Effect": -3.7}
{"smiles": "Cc1cc2nc(SCC(=O)N3CCCC3)n(C)c(=O)c2[nH]1", "Percent Effect": 0.2725}
{"smiles": "Fc1cccc(-c2nc(CN3CCOC(Cn4cncn4)C3)co2)c1", "stereo": "centres unmarked", "Percent Effect": 6.497}
{"smiles": "CCNc1cc2c(nn1)CCN(C(=O)CC1CCCCC1)C2", "Percent Effect": -6.003}
{"smiles": "COCCN1CCC2(CCN(Cc3nccs3)CC2)C1=O", "Percent Effect": -11.15}
{"smiles": "CCSCCNC(=O)C(c1cccc(F)c1)N(C)C", "stereo": "centres unmarked", "Percent Effect": -11.88}